At least one peptide structure holds a part that was inferred or is arguable (an end, a ring closure or a residue). Positions of bridges follow the written chain, without caps; N, C: chain ends. Non-standard residues stand in square brackets, D forms with d. Residues, ends and D or L forms follow the SMILES beside them. *: point of attachment. X1 = CC1(C)C(/C=C/C=C/C=C/C=C2/N(CCC(=O)*)c3ccc4ccccc4c3C2(C)C)=[N+](CCC(=O)[O-])c2ccc3ccccc3c21
Key:
[1] = Spectral properties for NIR imaging; type: physicochemical; details: in 20% DMSO solution
diverse tumor cells = experiment: NIR fluorescence microscopy of probe uptake in tumor cells; type: cell-based
non-tumor cells = experiment: NIR fluorescence microscopy of probe uptake in non-tumor cells; type: cell-based
A549 tumor cells = experiment: Inhibition of probe uptake by unlabeled cyclic (RGDFV) reference peptide; type: cell-based
[2] = tested on: positive lymph nodes (PLNs); experiment: Goggle-aided fluorescence mapping of positive lymph nodes; type: in vivo; details: mice; goggle device 102; confirmed by bioluminescence imaging

Question: Which results are given for `CC1(C)C(/C=C/C=C/C=C/C=C2/N(CCC(=O)N[C@@H]3CSSC[C@@H](C(=O)N[C@@H](CCCCN)C(=O)O)NC(=O)[C@@H]4CCCN4C(=O)[C@H](CO)NC(=O)[C@H](CC(=O)O)NC(=O)[C@H](CCCNC(=N)N)NC(=O)CNC3=O)c3ccc4ccccc4c3C2(C)C)=[N+](CCC(=O)[O-])c2ccc3ccccc3c21` [LS-301, Cypate-cyclo (D-Cys-Gly-Arg-Asp-Ser-Pro-Cys)-Lys-OH] (X1-[dC]GRDSPCK-OH; disulfide 1-7)?
Answer: emission [1]: 810 nm; excitation [1]: 790 nm; uptake in tumor cells (NIR fluorescence microscopy) (diverse tumor cells): punctate intracellular fluorescence typical of receptor-mediated endocytosis; uptake in non-tumor cells (NIR fluorescence microscopy) (non-tumor cells): barely visible uptake; uptake in presence of unlabeled cyclic (RGDFV) reference peptide (A549 tumor cells): successfully inhibited; mapping of positive lymph nodes by non-invasive fluorescence imaging [2]: PLNs were identified and resected under image guidance
